Assay results from US10113189B2, “Isolation and characterization of a novel pythium omega 3 desaturase with specificity to all omega 6 fatty acids longer than 18 carbon chains” (priority 2006, dated 2018).
For at least one compound, name, drawing or mass did not settle the structure.

Tested on: ω-3 desaturase from Pythium irregulare
Format: cell-based, S. cerevisiae
Conditions: expression in yeast, exogenously supplied ω-6 fatty acids
Procedure: The plasmids containing the full length O3 genes in the yeast expression vector pYES2.1/V5-His-TOPO were transformed into yeast S. cerevisiae. The positive transformants were selected for uracil auxotrophy on DOB-U agar plates. To characterize the ω-3 desaturase enzyme activity, positive clones and the control (yeast with pYES2.1 vector) were cultured overnight in DOB-U liquid medium at 28° C. and then grown in induction medium (DOB-U+Gal+Raf) containing 100 μM of various exogenously supplied fatty acid substrates at 16° C. for 4 days. The whole yeast cells expressing Pythium ω-3 genes were harvested by centrifugation and washed twice with distilled water. Then the yeast cells were directly transmethylated with methanolic HCl (3N) at 80° C. for 1 hour. The resultant methyl esters were extracted with hexane and analyzed by gas chromatography (GC). GC was carried out as described in WO 2005/083053.

CC/C=C\C/C=C\C/C=C\C/C=C\C/C=C\CCCCCC(=O)O [DPA, docosapentaenoic acid]
desaturation by ω-3 desaturase from Pythium (in words): desaturates
